Results from PMC4077737.
No constants are given. Whether binding was seen depends on the method and setting. Binding seen in cells or lysates may run through a third protein. Some binding calls cover weakened binding; strength is not graded here.

By UniProt entry, the sequences of proteins in these tests, tags left out. Where a name states a change or a piece, a line headed by the entry shows the natural chain unless it says otherwise.
UniProt P35222: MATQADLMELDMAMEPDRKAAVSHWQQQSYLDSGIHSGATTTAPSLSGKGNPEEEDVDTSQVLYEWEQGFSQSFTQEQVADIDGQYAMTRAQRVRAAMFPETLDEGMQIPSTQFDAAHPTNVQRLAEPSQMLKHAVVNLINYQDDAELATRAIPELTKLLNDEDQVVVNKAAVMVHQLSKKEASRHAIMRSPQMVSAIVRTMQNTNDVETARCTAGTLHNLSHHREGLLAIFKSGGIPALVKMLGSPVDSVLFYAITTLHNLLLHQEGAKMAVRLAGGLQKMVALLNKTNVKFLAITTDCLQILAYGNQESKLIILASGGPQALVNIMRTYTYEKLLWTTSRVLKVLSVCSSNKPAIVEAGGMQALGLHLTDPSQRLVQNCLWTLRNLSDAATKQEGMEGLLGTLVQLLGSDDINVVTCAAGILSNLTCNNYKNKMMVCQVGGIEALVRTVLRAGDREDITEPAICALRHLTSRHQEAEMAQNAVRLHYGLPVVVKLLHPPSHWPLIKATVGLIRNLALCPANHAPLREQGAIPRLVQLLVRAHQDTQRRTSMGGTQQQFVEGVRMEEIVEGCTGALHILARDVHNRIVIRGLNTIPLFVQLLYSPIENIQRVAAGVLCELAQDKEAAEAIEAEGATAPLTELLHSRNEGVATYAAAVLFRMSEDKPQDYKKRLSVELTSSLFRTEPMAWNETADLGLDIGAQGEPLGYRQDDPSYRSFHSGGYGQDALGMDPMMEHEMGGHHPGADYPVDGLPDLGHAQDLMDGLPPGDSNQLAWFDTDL
UniProt O14746: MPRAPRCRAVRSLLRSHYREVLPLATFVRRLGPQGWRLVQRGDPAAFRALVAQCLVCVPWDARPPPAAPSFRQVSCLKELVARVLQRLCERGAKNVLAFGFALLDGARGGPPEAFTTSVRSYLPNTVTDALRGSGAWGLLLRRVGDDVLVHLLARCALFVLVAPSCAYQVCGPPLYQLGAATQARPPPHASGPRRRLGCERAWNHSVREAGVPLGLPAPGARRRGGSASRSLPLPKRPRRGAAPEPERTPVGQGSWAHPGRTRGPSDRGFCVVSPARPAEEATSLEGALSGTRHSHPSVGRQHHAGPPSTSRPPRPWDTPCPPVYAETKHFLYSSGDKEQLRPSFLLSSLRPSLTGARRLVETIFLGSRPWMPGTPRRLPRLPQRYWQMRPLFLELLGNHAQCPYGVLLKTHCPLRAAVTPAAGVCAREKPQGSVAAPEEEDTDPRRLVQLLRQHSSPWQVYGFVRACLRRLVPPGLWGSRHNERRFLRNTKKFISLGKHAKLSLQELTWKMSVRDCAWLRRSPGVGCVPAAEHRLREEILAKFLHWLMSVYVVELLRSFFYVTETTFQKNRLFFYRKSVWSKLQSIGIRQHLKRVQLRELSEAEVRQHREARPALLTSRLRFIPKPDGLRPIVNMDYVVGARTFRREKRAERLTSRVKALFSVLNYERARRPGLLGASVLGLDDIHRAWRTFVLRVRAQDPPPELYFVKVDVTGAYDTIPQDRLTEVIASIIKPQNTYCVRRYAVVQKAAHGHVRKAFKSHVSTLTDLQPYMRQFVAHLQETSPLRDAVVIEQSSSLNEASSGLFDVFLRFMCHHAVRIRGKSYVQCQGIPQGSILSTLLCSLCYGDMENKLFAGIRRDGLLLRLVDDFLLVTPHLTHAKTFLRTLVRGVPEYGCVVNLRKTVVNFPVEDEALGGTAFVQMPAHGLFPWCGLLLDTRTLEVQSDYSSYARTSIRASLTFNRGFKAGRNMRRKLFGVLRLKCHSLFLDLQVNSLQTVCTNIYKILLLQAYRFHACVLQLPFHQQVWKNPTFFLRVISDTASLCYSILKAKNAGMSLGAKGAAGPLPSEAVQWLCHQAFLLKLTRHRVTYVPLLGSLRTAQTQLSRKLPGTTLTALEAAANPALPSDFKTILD
UniProt P51532: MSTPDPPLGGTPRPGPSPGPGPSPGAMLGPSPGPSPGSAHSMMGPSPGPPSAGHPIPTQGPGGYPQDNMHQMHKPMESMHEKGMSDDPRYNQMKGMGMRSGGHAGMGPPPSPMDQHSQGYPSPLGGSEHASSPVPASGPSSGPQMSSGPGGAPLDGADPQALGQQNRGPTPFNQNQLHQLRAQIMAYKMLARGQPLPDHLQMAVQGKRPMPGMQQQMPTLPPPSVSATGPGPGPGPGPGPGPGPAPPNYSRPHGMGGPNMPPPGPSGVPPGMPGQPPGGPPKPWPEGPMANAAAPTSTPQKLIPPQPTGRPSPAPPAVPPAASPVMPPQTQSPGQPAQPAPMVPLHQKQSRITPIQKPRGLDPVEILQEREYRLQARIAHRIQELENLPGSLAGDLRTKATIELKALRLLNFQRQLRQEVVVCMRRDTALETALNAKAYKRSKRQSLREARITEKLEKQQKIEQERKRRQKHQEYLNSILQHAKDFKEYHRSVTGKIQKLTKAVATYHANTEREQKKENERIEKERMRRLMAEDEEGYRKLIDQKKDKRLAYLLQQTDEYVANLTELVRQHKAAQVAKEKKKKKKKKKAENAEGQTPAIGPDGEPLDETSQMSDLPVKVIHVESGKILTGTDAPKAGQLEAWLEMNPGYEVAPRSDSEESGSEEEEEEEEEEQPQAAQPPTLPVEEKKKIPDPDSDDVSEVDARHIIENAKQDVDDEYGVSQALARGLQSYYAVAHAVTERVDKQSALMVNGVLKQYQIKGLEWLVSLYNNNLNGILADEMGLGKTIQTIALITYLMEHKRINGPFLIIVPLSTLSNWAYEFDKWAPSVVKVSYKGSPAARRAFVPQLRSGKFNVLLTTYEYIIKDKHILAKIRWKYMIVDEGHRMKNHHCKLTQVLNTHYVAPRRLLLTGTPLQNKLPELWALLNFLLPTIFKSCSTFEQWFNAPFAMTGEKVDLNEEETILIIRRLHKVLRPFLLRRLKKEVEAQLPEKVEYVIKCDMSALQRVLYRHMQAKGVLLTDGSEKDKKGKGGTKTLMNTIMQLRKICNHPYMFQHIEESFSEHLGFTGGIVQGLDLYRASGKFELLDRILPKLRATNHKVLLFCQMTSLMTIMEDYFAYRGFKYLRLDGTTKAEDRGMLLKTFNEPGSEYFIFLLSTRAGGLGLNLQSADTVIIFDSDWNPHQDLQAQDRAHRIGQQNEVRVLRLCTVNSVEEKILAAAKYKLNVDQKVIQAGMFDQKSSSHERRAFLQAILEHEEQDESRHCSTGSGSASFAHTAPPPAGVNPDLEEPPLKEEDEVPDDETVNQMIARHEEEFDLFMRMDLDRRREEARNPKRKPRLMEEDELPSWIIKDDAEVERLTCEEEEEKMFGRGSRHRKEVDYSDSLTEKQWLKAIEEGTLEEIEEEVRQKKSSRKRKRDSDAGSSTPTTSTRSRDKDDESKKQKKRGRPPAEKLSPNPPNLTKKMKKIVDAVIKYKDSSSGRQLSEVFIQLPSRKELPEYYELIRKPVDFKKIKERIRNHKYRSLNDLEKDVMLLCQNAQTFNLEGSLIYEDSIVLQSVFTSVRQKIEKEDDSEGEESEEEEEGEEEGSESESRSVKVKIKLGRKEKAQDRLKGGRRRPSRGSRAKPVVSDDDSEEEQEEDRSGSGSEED

Experiments:
Test in all cases: co-IP; HeLa cells transiently transfected with control vector, wtTERT or TERT variants; lysates immunoprecipitated with anti-TERT (Rocklands), anti-BRG-1 (Millipore) or anti-β-catenin (Abcam); immunoblot
[1] = molecular target: β-catenin (human (endogenous in HeLa)) (UniProt P35222)
[2] = molecular target: wild-type telomerase reverse transcriptase (wtTERT) (human) (UniProt O14746)
[3] = molecular target: TERT variant G260D (human) (UniProt O14746)
[4] = molecular target: BRG-1 (human (endogenous in HeLa)) (UniProt P51532)

wild-type telomerase reverse transcriptase (wtTERT) (from UniProt O14746 1-1132)
binding [1]: binds

BRG-1 (from UniProt P51532 1-1647)
binding [1]: binds

TERT variant G260D (from UniProt O14746 1-1132)
binding [1]: binds

β-catenin (from UniProt P35222 1-781)
binding [2]: binds | binding [3]: binds | binding [4]: binds
